# Publication PMC7819943, “Rice protein-binding microarrays: a tool to detect cis-acting elements near promoter regions in rice”
# The list shows a part of the results.
# Target: T1, OsSMF1 (Oryza sativa, UniProt Q6ZLB0 1-436)
# T1 sequence: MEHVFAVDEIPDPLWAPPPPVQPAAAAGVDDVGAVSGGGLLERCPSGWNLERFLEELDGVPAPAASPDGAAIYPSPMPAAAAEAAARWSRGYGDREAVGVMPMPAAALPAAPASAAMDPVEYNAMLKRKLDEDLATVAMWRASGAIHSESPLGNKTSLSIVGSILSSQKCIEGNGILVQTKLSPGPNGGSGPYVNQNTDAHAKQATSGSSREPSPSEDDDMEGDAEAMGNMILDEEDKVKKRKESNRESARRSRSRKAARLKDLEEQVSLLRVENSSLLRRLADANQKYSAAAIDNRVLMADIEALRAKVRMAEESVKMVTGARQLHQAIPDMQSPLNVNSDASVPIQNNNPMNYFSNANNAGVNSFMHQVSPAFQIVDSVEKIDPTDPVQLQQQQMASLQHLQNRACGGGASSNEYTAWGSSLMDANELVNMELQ
# Experiment: protein-binding microarray (RPBM); PBS, 2% BSA, 51.3 ng/ul salmon testes DNA, 50 uM zinc acetate, 200 nM TF, 25 C, 1 h; high values mean tight binding
# Conditions: protein: recombinant; tags: N-terminal polyhistidine and DsRed monomer fusion (pET32a); chain copies: 2; label: CyDye5-dUTP incorporated in the synthesized complementary strand; 3' TTTTT single-stranded linker to array surface; dsDNA, one strand shown
# In short: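 The binding signal is fluorescence intensity per array feature (arbitrary units). Readings came from an Axon 4000B scanner after a washed, 2% BSA-blocked, double-stranded custom Agilent array had been incubated for 1 h at 25 °C with 200 nM protein and 50 µM zinc acetate. The protein was a Ni–NTA-purified transcription factor fused N-terminally to polyhistidine and DsRed, expressed in E. coli BL21-CodonPlus.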
row,Sequence,binding signal
1,CAAACCCAAACCAACCCGTTCCACGTCTTTCCCCACGACCCGGAGTCACCTAGTGCAG,4970 fluorescence intensity (a.u.)
2,CTCGATCCTTTCGAGGCTCGACCACTTGGGCCGCAGTGACCGGAGTCACCTAGTGCAG,4090 fluorescence intensity (a.u.)
3,AGTAGCGAGCTACTCTCTCTGGTCATCAAGCTTTGAGTGGCGGAGTCACCTAGTGCAG,3150 fluorescence intensity (a.u.)
4,CCTGCTCCCCGTCGCCGACGGCGTCACGCTGTGCCGCCGCCGGAGTCACCTAGTGCAG,5480 fluorescence intensity (a.u.)
5,TATCACTTACGGTGGTTGTTGATGTTAACTGGACCTCGATCGGAGTCACCTAGTGCAG,3340 fluorescence intensity (a.u.)
6,CGACTCCGGCCTTGTTGACGAACGAACGAATGATGCGGAGCGGAGTCACCTAGTGCAG,23700 fluorescence intensity (a.u.)
7,AATTAGCTAATACTTAATTAATCACGTGCTAATGGATCACCGGAGTCACCTAGTGCAG,30100 fluorescence intensity (a.u.)
8,CCGTCTGCCAGCTCACCCCGTCCCCACCTCTCCTCCCTGCCGGAGTCACCTAGTGCAG,10500 fluorescence intensity (a.u.)
9,TATGCTAAAGGCGAACACCGAGCGCCCACATCACAACACTCGGAGTCACCTAGTGCAG,3520 fluorescence intensity (a.u.)
10,TAAAACAAGAAACAGTGGCGTCAGCTCTTGGAGAACATCCCGGAGTCACCTAGTGCAG,3940 fluorescence intensity (a.u.)
11,ACTCCTATGGCGTCCGCTGCCAGCTCCATCTGCCACCATCCGGAGTCACCTAGTGCAG,4150 fluorescence intensity (a.u.)
12,ATTTCAAGCTCGAGCGAGCCGAGCCTATAACGAGTCGAGTCGGAGTCACCTAGTGCAG,14200 fluorescence intensity (a.u.)
13,ATCTCGGCAAAAGTCGAGTCACTCTCTAATATTCTCCACGCGGAGTCACCTAGTGCAG,3650 fluorescence intensity (a.u.)
14,CGTGATGGTGTTATTTGGTTACATCGGTTTAGAACGGGTTCGGAGTCACCTAGTGCAG,3950 fluorescence intensity (a.u.)
15,GGACCATGAATCCTACGGGAGAAGATGCGCCATCCTTATGCGGAGTCACCTAGTGCAG,4720 fluorescence intensity (a.u.)
16,TAAACATATGTAGTCATCCCGACTTTGTACCCGGTGACCGCGGAGTCACCTAGTGCAG,3300 fluorescence intensity (a.u.)
17,CACCCATTGGCTTGGTATGATGTAATGTAAGCTTCATCCACGGAGTCACCTAGTGCAG,3200 fluorescence intensity (a.u.)
18,CTCTGTACGTTTCGTGCAAACGTGTATAATACGGCAACGCCGGAGTCACCTAGTGCAG,3510 fluorescence intensity (a.u.)
19,GCAATTTCTGTTTCGTTTATATTTGACATTCTCCCTCCGTCGGAGTCACCTAGTGCAG,4010 fluorescence intensity (a.u.)
20,GGCGGGAAACAGGTGGCGGCGCACCGGTTTCCCCTTTCTGCGGAGTCACCTAGTGCAG,3400 fluorescence intensity (a.u.)
21,AACGCGAGTGACGTATCTGCATACGTGGCAGTAGATCGTCCGGAGTCACCTAGTGCAG,31400 fluorescence intensity (a.u.)

row,Sequence,binding signal
1,CTGTTTCTTTCAAGCTACACAGTGTTTAAGCATCATTAGGCGGAGTCACCTAGTGCAG,27900 fluorescence intensity (a.u.)
2,ATAAAAGTCCCCTCCACTTCCTCACCAATTAAACAACACCCGGAGTCACCTAGTGCAG,21400 fluorescence intensity (a.u.)
3,ATCGTAGACGCGATGATGGCCCACGTAATCTGATTTGGTTCGGAGTCACCTAGTGCAG,4650 fluorescence intensity (a.u.)
4,AGATTATATCTAACAGCTAATTGAATTTATTGTGTCATGACGGAGTCACCTAGTGCAG,3430 fluorescence intensity (a.u.)
5,CGAAATCTAAATGTTTATGTAGTAGTATAGTATACACTAGCGGAGTCACCTAGTGCAG,14400 fluorescence intensity (a.u.)
6,GTCATTTAAAAGTGTCTTGATTTCATGACGTACTACGTATCGGAGTCACCTAGTGCAG,5430 fluorescence intensity (a.u.)
7,TAGGGTTCTCGGAATCGAGCCATCGATTTGAATCCAACCTCGGAGTCACCTAGTGCAG,28200 fluorescence intensity (a.u.)
8,AGCTTATGTACACAAAACATGTTCATGACGCAGATTACATCGGAGTCACCTAGTGCAG,5050 fluorescence intensity (a.u.)
9,GTTGAGACAACTAGTGATAAAGTTAACGTGTCAGAGAACGCGGAGTCACCTAGTGCAG,4820 fluorescence intensity (a.u.)
10,AATGCTTATATTGGTAGACGGAGGCGATAATCCTTGTCATCGGAGTCACCTAGTGCAG,4150 fluorescence intensity (a.u.)
11,ACGCGCCACGTGCGTTAGCGTCCACGTCACACGCTTGCACCGGAGTCACCTAGTGCAG,36200 fluorescence intensity (a.u.)
12,AATCTCGGTGCTGAGTGGACATGAATGAATGATGGAATCTCGGAGTCACCTAGTGCAG,4150 fluorescence intensity (a.u.)
13,AGGAGGAGGAGGAGGAGGAGGAGGAGGCGGTGGGAGGGATCGGAGTCACCTAGTGCAG,4490 fluorescence intensity (a.u.)
14,AAAATAAGGTCAAATATGTATCTTGTAGACCGTGTCATTGCGGAGTCACCTAGTGCAG,3210 fluorescence intensity (a.u.)
15,CAATCCAACCGTCGTCGCGCCGCACACCGGCCACCCACCCCGGAGTCACCTAGTGCAG,20700 fluorescence intensity (a.u.)
16,GAAAATATGTGCCAGGTGGAGCAGTATGTCATTGTCAGGACGGAGTCACCTAGTGCAG,4880 fluorescence intensity (a.u.)
17,GAGCAGTAATGCGTGTGCGGCGATTGGCACGTGCATGGTGCGGAGTCACCTAGTGCAG,3780 fluorescence intensity (a.u.)
18,CGCTCCGTCAGCCACGTAGACGCTACGTCGGCCAAAACCGCGGAGTCACCTAGTGCAG,14900 fluorescence intensity (a.u.)
19,TTAAAGCTGACTAGAGTACTTAGTTTGGTACTTGGATTTACGGAGTCACCTAGTGCAG,3580 fluorescence intensity (a.u.)
20,TCTGCTTGGACGCCTCACGCCACCGTGTAATGAGTGAACGCGGAGTCACCTAGTGCAG,3210 fluorescence intensity (a.u.)
21,TAAAGTATGAAATAGTGGTGTTTGCATTGGAAGAGTAGTGCGGAGTCACCTAGTGCAG,3460 fluorescence intensity (a.u.)

# Three entries picked at random from the list so far:
row,Sequence,binding signal
10,AATGCTTATATTGGTAGACGGAGGCGATAATCCTTGTCATCGGAGTCACCTAGTGCAG,4150 fluorescence intensity (a.u.)
6,GTCATTTAAAAGTGTCTTGATTTCATGACGTACTACGTATCGGAGTCACCTAGTGCAG,5430 fluorescence intensity (a.u.)
11,ACGCGCCACGTGCGTTAGCGTCCACGTCACACGCTTGCACCGGAGTCACCTAGTGCAG,36200 fluorescence intensity (a.u.)
